Reference: article PMC12724345

What was measured:
[1] = target: Rep of TYLCV isolate Alb13 fused to SCFP^C (Rep-SCFP^C) (tomato yellow leaf curl virus (TYLCV), isolate Alb13); test: split reporter; BiFC with halves of S(CFP)3A in agroinfiltrated N. benthamiana leaf epidermal cells, with P19; confocal microscopy 3 days post-infiltration; signal in nuclear bodies
[2] = target: Rep of TYLCV isolate Alb13 fused to SCFP^C (Rep-SCFP^C) (tomato yellow leaf curl virus (TYLCV), isolate Alb13); test: split reporter; multicolor BiFC in N. benthamiana: Rep-SCFP^C co-expressed with Venus^N-SUMO1 and SCFP^N-SCE1
[3] = target: Rep of TYLCV fused to NLuc (split-luciferase assay) (tomato yellow leaf curl virus (TYLCV), isolate Alb13); test: split reporter; split-luciferase complementation (SLUC) in agroinfiltrated N. benthamiana leaves, with P19; luminescence imaged 3 days post-infiltration; unfused luciferase halves as negative controls
[4] = target: Rep I217A, GAL4 BD fusion (tomato yellow leaf curl virus (TYLCV), isolate Almeria); test: two-hybrid; GAL4 system in S. cerevisiae PJ69-4α; Rep as GAL4 BD, SCE1 as GAL4 AD fusion; growth on -LWH with 1 mM 3AT, 30°C, 3 days
[5] = target: Rep of TYLCV isolate Alb13, GAL4 two-hybrid fusion (tomato yellow leaf curl virus (TYLCV), isolate Alb13); test: as above
[6] = target: Rep I215/V216A, GAL4 BD fusion (tomato yellow leaf curl virus (TYLCV), isolate Almeria); test: as above
[7] = target: Rep V216/I217A, GAL4 BD fusion (tomato yellow leaf curl virus (TYLCV), isolate Almeria); test: as above

B1: Arabidopsis SCE1 fused to SCFP^N (SCFP^N-SCE1) (enzyme, UniProt Q42551 1-160)
chain: MASGIARGRLAEERKSWRKNHPHGFVAKPETGQDGTVNLMVWHCTIPGKAGTDWEGGFFPLTMHFSEDYPSKPPKCKFPQGFFHPNVYPSGTVCLSILNEDYGWRPAITVKQILVGIQDLLDTPNPADPAQTDGYHLFCQDPVEYKKRVKLQSKQYPALV
In the case of B1, the binding [1] is reported as “binds” and the binding [2] is reported as “binds”.

B2: Arabidopsis SCE1 fused to CLuc (split-luciferase assay) (enzyme, UniProt Q42551 1-160)
chain: B1 chain
For B2, the binding [3] was “binds”.

B3: Arabidopsis SCE1 (SUMO E2-conjugating enzyme 1), GAL4 AD fusion (enzyme, UniProt Q42551 1-160)
chain: B1 chain
With B3 the binding [4] was “no binding”, the binding [5] was “binds” and the binding [6] was “no binding”. The binding [7] was “no binding”.

B4: Arabidopsis SCE1 variant R14E/R18E/H21D (SCE1^SUM1), GAL4 two-hybrid fusion (enzyme, UniProt Q42551 1-160)
chain: B1 chain with R14E, R18E, H21D
B4 was tested, and the binding [5] was “no binding”.

Where a chain is given by its changes, count along the chain named. Numbers in names are those of the source. Results are given in words; binding and its absence hold for the method and conditions named. For some assays here: Binding can be weak; no strength is given. Tags and fused reporters may be left off the sequences shown. For some assays here: Binding seen in cells or lysates may run through a third protein.
